Assay results taken from US9732119B2, “Immunomodulators” (BRISTOL-MYERS SQUIBB COMPANY, priority 2014, dated 2017).

By UniProt entry, the sequences of proteins in these tests, tags left out. Chains listed by the source or under a name are the forms on record and can include a tag or linker.
UniProt Q9NZQ7, with tags, fused parts or gaps: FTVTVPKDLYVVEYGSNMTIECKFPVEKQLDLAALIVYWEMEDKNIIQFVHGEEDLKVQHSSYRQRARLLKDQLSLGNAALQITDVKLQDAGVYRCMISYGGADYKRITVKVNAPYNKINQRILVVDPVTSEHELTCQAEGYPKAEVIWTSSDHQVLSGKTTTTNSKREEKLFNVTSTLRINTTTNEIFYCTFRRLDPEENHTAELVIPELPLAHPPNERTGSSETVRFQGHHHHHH

Target: T1, PD-1-Ig binding to PD-L1-TVMV-His (PD-L1-His) (Homo sapiens, UniProt Q9NZQ7)
T1 construct: hPDL1(19-239)-TVMV-His; made in house; host or cells: HEK293T cells
Assay: PD-1/PD-L1 Homogenous Time-Resolved Fluorescence (HTRF) binding assay
Settings: PD-1-Ig (20 nM) / PD-L1-His (10 nM); range classes
Excerpt: The ability of the macrocyclic peptides of the present disclosure to bind to PD-L1 was investigated using a PD-1/PD-L1 Homogenous Time-Resolved Fluorescence (HTRF) binding assay.
Homogenous Time-Resolved Fluorescence (HTRF) Assays of Binding of Soluble PD-1 to Soluble PD-L1. Soluble PD-1 and soluble PD-L1 refers to proteins with carboxyl-end truncations that remove the transmembrane-spanning regions and are fused to heterologous sequences, specifically the Fc portion of the human immunoglobuling G sequence (Ig) or the hexahistidine epitope tag (His). All binding studies were performed in an HTRF assay buffer consisting of dPBS supplemented with 0.1% (w/v) bovine serum albumin and 0.05% (v/v) Tween-20. For the PD-1-Ig/PD-L1-His binding assay, inhibitors were pre-incubated with PD-L1-His (10 nM final) for 15 m in 4 μl of assay buffer, followed by addition of PD-1-Ig (20 nM final) in 1 μl of assay buffer and further incubation for 15 m. PD-L1 fusion proteins from either human, cynomologous macaques, mouse, or other species were used. HTRF detection was achieved using europium crypate-labeled anti-Ig monoclonal antibody (1 nM final) and allophycocyanin (APC) labeled anti-His monoclonal antibody (20 nM final). Antibodies were diluted in HTRF detection buffer and 5 μl was dispensed on top of binding reaction. […]

IC50: 0.01 to 0.099 µM
SMILES: CCCC[C@H]1C(=O)N(C)[C@@H](CCCC)C(=O)N[C@@H](CC(C)C)C(=O)N[C@H](C(=O)NCC(N)=O)CCCC(=O)N[C@@H](Cc2ccc(O)cc2)C(=O)N(C)[C@@H](C)C(=O)N[C@@H](CC(N)=O)C(=O)N2CCC[C@H]2C(=O)N[C@@H](CN)C(=O)N[C@@H](CC(C)C)C(=O)N2C[C@H](O)C[C@H]2C(=O)N[C@@H](Cc2c[nH]c3ccccc23)C(=O)N[C@@H](CCN)C(=O)N[C@@H](Cc2cn(CC(=O)O)c3ccccc23)C(=O)N1C [Example 10514]
